Data reported in paper PMC9589051.
Results are given in words; binding and its absence hold for the method and conditions named. Binding seen in cells or lysates may run through a third protein. Some binding calls cover weakened binding; strength is not graded here.

Chains of the proteins cited; added tags and fusions are not shown.
UniProt P40763: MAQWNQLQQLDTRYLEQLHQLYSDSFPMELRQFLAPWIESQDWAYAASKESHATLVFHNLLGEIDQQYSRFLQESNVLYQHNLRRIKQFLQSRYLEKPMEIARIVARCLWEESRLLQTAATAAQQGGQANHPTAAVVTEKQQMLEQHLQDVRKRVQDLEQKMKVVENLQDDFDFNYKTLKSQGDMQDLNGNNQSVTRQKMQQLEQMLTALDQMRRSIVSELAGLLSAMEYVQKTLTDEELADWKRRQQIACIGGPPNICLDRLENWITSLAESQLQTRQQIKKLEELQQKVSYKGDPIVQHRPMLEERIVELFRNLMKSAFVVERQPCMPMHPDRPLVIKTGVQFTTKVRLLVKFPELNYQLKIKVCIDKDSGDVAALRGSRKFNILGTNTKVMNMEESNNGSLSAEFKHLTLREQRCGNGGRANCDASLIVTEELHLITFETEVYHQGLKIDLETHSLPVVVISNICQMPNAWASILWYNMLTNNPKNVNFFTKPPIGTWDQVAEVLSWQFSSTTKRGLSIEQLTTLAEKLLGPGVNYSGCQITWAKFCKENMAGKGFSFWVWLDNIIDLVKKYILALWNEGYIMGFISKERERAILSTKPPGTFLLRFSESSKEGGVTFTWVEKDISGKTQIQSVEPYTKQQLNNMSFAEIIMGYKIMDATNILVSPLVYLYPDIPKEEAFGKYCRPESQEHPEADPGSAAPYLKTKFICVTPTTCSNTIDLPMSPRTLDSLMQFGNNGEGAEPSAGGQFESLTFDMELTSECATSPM
UniProt Q12778: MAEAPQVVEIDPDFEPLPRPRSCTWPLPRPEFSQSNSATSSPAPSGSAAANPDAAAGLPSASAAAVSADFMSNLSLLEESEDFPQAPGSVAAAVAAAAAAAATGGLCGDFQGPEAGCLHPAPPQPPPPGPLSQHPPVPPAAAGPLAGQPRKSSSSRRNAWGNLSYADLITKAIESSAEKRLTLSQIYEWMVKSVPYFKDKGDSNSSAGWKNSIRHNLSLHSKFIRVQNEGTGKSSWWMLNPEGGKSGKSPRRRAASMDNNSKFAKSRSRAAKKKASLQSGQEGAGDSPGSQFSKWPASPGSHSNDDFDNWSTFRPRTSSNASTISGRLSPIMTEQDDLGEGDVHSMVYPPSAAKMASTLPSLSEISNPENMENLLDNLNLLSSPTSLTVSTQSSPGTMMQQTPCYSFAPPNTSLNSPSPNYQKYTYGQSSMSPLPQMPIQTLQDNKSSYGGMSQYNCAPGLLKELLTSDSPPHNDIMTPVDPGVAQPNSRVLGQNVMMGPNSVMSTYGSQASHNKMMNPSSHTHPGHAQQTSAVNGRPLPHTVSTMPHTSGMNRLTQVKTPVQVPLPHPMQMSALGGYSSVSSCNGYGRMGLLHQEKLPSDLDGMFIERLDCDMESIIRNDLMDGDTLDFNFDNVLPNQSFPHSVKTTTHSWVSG

Target: signal transducer and activator of transcription 3 (STAT3) (human (endogenous in HaCaT)) (UniProt P40763)
Experiment: co-IP; HaCaT cell lysate (mild IP lysis solution) incubated with FOXO1 or STAT3 antibodies or control IgG and protein A agarose overnight at 4°C; the interacting protein detected by western blotting

- binding: binds
Substance: forkhead box protein O1 (FOXO1) (from UniProt Q12778 1-655)
